Small-molecule microarray binding calls

Oligonucleotides screened, 5′ to 3′:
T1: PreQ1 riboswitch RNA pseudoknot, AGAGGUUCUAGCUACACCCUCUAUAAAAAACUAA. From B. subtilis. About 24,000 compounds screened, about 170 hits.
T2: TPP riboswitch RNA three-way junction, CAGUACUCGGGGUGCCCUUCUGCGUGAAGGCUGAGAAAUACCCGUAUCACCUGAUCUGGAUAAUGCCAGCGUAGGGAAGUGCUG. About 24,000 compounds screened, about 160 hits.
T3: SAM-II riboswitch RNA pseudoknot, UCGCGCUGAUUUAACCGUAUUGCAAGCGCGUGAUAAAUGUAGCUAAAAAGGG. About 21,000 compounds screened, about 200 hits.

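The test is a small-molecule microarray: each compound is printed twice on a reactive slide, and binding shows as fluorescence of the labelled oligonucleotide after washing. The data file lists only calls. An earlier report of the laboratory on the PreQ1, TPP and SAM-II riboswitches (doi:10.1038/s41467-019-09493-3) used 1 µM RNA for 2 h and required a mean Z-score above 3 (spot signal-to-noise against the whole library), a score well above that on a control array, and duplicate spots agreeing (coefficient of variation under 100); it then also set aside compounds that hit other targets, which this list keeps. The cut-offs behind this list may differ. A missing hit is not proof of no binding, and a hit is not a measured affinity.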
“Y” means called a hit, “N” means screened and not called a hit.
The compounds are a random part of those screened.
A target missing from an entry has no call listed here.
A dash means that no call is listed here.

| # | SMILES | T1 | T2 | T3 |
|---|---|---|---|---|
| 1 | `O=C(Nc1ccn(C2CC(OC(=O)c3ccccc3)C(CO)O2)c(=O)n1)c1ccccc1` (centres undefined) | N | N | N |
| 2 | `Cc1ccc(NCC2COc3ccccc3O2)cc1` (centres undefined) | N | N | N |
| 3 | `COc1cccc(NC2=C(C(N)=O)S(=O)(=O)c3ccccc32)c1` | N | N | - |
| 4 | `CN(C)CCNc1ncnc2c1c(-c1ccccc1)cn2-c1cccc(Cl)c1` | N | N | - |
| 5 | `Cc1cc([C@H]2C[C@H]3CC[C@@H](C2)N3Cc2cc3n(n2)CCCNC3)ccc1F` | N | N | N |
| 6 | `Cc1nn(CC(=O)N2CCc3nc(N)sc3C2)c(=O)c2ccccc12` | N | N | N |
| 7 | `O=c1cccc2n1C[C@H]1CNC[C@H]2C1` | N | N | N |
| 8 | `Cc1ccccc1NC(=O)N1C[C@@H](O)[C@H](NCCc2ncccc2C)C1` | N | N | N |
| 9 | `NC(=O)c1ncn([C@@H]2O[C@H](CO)[C@@H](O)[C@@H]2O)c1N` | N | N | N |
| 10 | `Cn1c(=O)n(C)c2cc(CNCCCN3CCOCC3)ccc21` | N | N | - |
| 11 | `CCNc1nc(N2CCCCC2)nc(-n2cnc(SC)n2)n1` | N | N | - |
| 12 | `Cc1nn(C(=O)c2ccc(Cl)cc2)c(N)c1-c1ccccc1` | N | N | N |
| 13 | `Cc1nn(C)c(C)c1CCC(=O)NCc1nc(N)nc(N(C)C)n1` | N | N | N |
| 14 | `O=S1(=O)N=C(NCCCN2CCOCC2)c2ccccc21` | N | N | N |
| 15 | `Cc1cc(C)c(CN2CCN(c3cc(N)nc(N)n3)CC2)c(-n2cccn2)c1` | N | N | N |
| 16 | `Cc1cc(C)n(-c2nc3nonc3nc2Nc2cccc(C)c2C)n1` | N | N | N |
| 17 | `CC(C)CC=C(CN1CC[C@H](CO)[C@@H](O)C1)c1ccccc1` | N | N | N |
| 18 | `Cc1ccc(-c2noc(-c3nnn(-c4cccc(C)c4C)c3N)n2)cc1` | N | N | - |
| 19 | `Cc1sc2nc3c4ccccc4c(NCCO)nn3c(=O)c2c1C` | N | N | N |
| 20 | `Cl.OC(COc1ccccc1Br)CN1CCCC1` (centres undefined) | N | N | N |
| 21 | `Cc1c(-c2cnn(C)c2)nc(N)c(C#N)c1-c1cccc(CN(C)C)c1` | N | N | N |
| 22 | `COC(CN)c1ccc2c(c1)OCCO2` (centres undefined) | N | N | N |
| 23 | `COc1cc(/C=N/N=c2\[nH]c3c(=O)n(C)c(=O)n(C)c3[nH]2)ccc1O` | N | N | N |
| 24 | `Cc1ccc(C(C(=O)NCCOCCO)N(C)C)cc1` (centres undefined) | N | N | N |
| 25 | `Cc1nn2c(N)c(C#N)cnc2c1-c1cccc2ccccc12` | N | N | - |
| 26 | `OC[C@H]1CN(Cc2ccc(-c3cc[nH]n3)o2)C[C@H]1CN1CCOCC1` | N | N | N |
| 27 | `Cc1ccc(OCc2nc3ccccc3n2CC(O)COc2ccccc2)cc1` (centres undefined) | N | N | - |
| 28 | `Cc1ccc(C(F)(F)F)cc1C(=O)N[C@H]1CN(CCO)C[C@@H]1C1CC1` | N | N | N |
| 29 | `Cc1cc2c(c(=O)n1CCN(C)C)C(c1cccnc1)C(C#N)=C(N)O2` (centres undefined) | N | N | N |
| 30 | `COC(=O)Nc1nc2ccc(Sc3ccccc3)cc2[nH]1` | N | N | N |
| 31 | `O=C(Nc1nc2cccc(-c3ccc(CN4CCS(=O)(=O)CC4)cc3)n2n1)C1CC1` | N | N | N |
| 32 | `COC(=O)CSc1nnc(CN)o1` | N | N | - |
| 33 | `CCOC(=O)c1ccccc1NC(=O)c1sc(N)c(C(=O)OCC)c1C` | N | N | N |
| 34 | `COc1ccc(-c2c(C#N)c(N)nc3c2CCCCC3)cc1OC` | N | N | N |
| 35 | `O=C(CC1Nc2ccccc2NC1=O)Nc1ccc(Cl)cc1` (centres undefined) | N | N | N |
| 36 | `CCC(C)NC(=O)c1sc2nc(C)c(C(=O)Nc3ccc(C)cc3C)c(-c3ccco3)c2c1N` (centres undefined) | N | N | N |
| 37 | `Cc1nc(Cc2ccc(N(C)C)cc2)n(CCO)n1` | N | N | N |
| 38 | `CC1(C)CC(=O)C2=C(C1)OC(N)=C(C#N)C2c1cccc2ccccc12` (centres undefined) | N | N | N |
| 39 | `O=C1Nc2ccccc2NC12CCN(Cc1cc3n(n1)CCNC3)CC2` | N | N | N |
| 40 | `NC[C@H](O)c1ccc(O)c(O)c1` | N | N | N |
| 41 | `O=C(CN1CCCCCC1=O)NCc1cc2n(n1)CCNC2` | N | N | N |
| 42 | `COC(=O)C1=C(C)OC(N)=C(C#N)C12C(=O)N(Cc1cccc(Cl)c1)c1ccccc12` (centres undefined) | N | N | N |
| 43 | `Cc1cccc(C2C(C#N)=C(N)OC3=C2S(=O)(=O)N(C)c2ccccc23)c1` (centres undefined) | N | N | - |
| 44 | `O=C(NCC(CO)Cc1ccsc1)c1cccc(N2CCNC2=O)c1` (centres undefined) | N | N | N |
| 45 | `Cc1cccc(C(=O)N2CCc3nc(N)nc(NCCCO)c3CC2)c1` | N | N | N |
| 46 | `CC1CCN(Cc2ccc(C(=O)N3CCCC(O)(CO)CC3)o2)CC1` (centres undefined) | N | N | N |
| 47 | `CCOC(=O)c1ccccc1NC(=O)N1CC[C@H]2CC[C@@H](C1)N2` | N | N | N |
| 48 | `CS(=O)(=O)N1CCCC(CNCCC(=O)Nc2cccnc2)C1` (centres undefined) | N | N | N |
| 49 | `CCCC(=O)Nc1cccc(C(=O)NCCN2CCCCC2CO)c1` (centres undefined) | N | N | N |
| 50 | `Cc1ccccc1-n1cc(CN(C)C(=O)c2ccccc2C2CCNC2)cn1` (centres undefined) | N | N | N |
| 51 | `Cc1ccc(S(=O)(=O)Nc2nc3ccc(C)cc3nc2Nc2ccc3c(c2)n(C)c(=O)n3C)cc1` | N | N | N |
| 52 | `Cc1c(S(=O)(=O)c2ccc(Cl)cc2)c(N)n(C2CC2)c1C` | N | N | N |
| 53 | `OCCNc1nc(-c2ccccc2)c2cc(Br)ccc2n1` | N | N | N |
| 54 | `OCc1cc(-c2ccc3c(c2)OCCO3)ccn1` | N | N | N |
| 55 | `CC(C)C(=O)Nc1cccnc1-c1cccc2c1CCNC2` | N | N | N |
| 56 | `CCOc1ccccc1NC(=O)NCC1CNCCOC1` (centres undefined) | N | N | N |
| 57 | `CCc1ccc(S(=O)(=O)c2nnn(-c3ccc(F)c(Cl)c3)c2N)cc1` | N | N | N |
| 58 | `CCCCSc1nc(N)cc(NCC2(N3CCN(C)CC3)CCCC2)n1` | N | N | N |
| 59 | `Cc1cc(N2CCN(CCO)CC2)n2nc(-c3ccc(C(C)(C)C)cc3)nc2n1` | N | N | - |
| 60 | `COc1cccc2c(NCc3ccccc3)nc(-n3c(N)nc4ccccc43)nc12` | N | N | N |

The last 7 entries again:

- OCc1cc(-c2ccc3c(c2)OCCO3)ccn1 : T1: N; T2: N; T3: N
- CC(C)C(=O)Nc1cccnc1-c1cccc2c1CCNC2 : T1: N; T2: N; T3: N
- CCOc1ccccc1NC(=O)NCC1CNCCOC1 (centres undefined) : T1: N; T2: N; T3: N
- CCc1ccc(S(=O)(=O)c2nnn(-c3ccc(F)c(Cl)c3)c2N)cc1 : T1: N; T2: N; T3: N
- CCCCSc1nc(N)cc(NCC2(N3CCN(C)CC3)CCCC2)n1 : T1: N; T2: N; T3: N
- Cc1cc(N2CCN(CCO)CC2)n2nc(-c3ccc(C(C)(C)C)cc3)nc2n1 : T1: N; T2: N
- COc1cccc2c(NCc3ccccc3)nc(-n3c(N)nc4ccccc43)nc12 : T1: N; T2: N; T3: N

From ROBIN, a set of small-molecule microarray screens (doi:10.1002/anie.202211358).